Measured values: PubChem BioAssay AID493014 (National Center for Advancing Translational Sciences (NCATS), 2011)
The list shows a part of the results. Further columns of the screen follow, without active or inactive calls. Most of these compounds were active or inconclusive in the main read-out, so they are no random draw. Potencies come from curve fits of mixed quality, noted in brackets.

Assay: qHTS Assay to Find Inhibitors of Chronic Active B-Cell Receptor Signaling
Settings: ABC-DLBCL IkBa-CBG/CBR reporter, luminescence ratio (green luciferase fused to IkBa over red control in TMD8 lymphoma cells), 4 h
In short: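 Compounds up to 46 uM were incubated four hours with TMD8 cells whose green CBG68 luciferase is fused to IkappaBalpha; red CBR luminescence normalised the signal, and concentration-effect curves were fitted to fusion, red and ratio data.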

[1] = measured here: CBR red luminescence, cell number
[2] = measured here: IkBa-CBG green luminescence

SMILES | AC50 [1] | AC50 [2]
Cc1ccc(S(=O)(=O)N2CCN(C(=O)c3ccc(-n4cncn4)c([N+](=O)[O-])c3)CC2)cc1C | 23.1 µM [falling, partial curve, poor fit] | 20.6 µM [rising, partial curve, poor fit]
COC(=O)/C=C1\N/C(=N\c2nc(C)cc(C)n2)N(c2ccc(Cl)cc2)C1=O | 7.94 µM [falling, partial curve, poor fit] | –
CN1C(C(=O)NCc2ccco2)=CC(c2ccc(F)cc2)=NS1(=O)=O | 10 µM [falling, partial curve] | –
Fc1ccccc1NC(=S)N1CCN(c2ccccn2)CC1 | 2.59 µM [rising, full curve] | –
COc1ccc(C(=O)Nc2cccc(-c3ccc(N4CCOCC4)nn3)c2)cc1OC | 20.6 µM [falling, single point] | –
Cc1cccc(C)c1N(CC(=O)NCc1ccco1)C(=O)CNS(=O)(=O)c1ccc(F)cc1 | 35.5 µM [falling, partial curve, poor fit] | –
CC(=O)c1ccccc1NC(=O)COC(=O)CCCN1C(=O)c2cccc3cccc(c23)C1=O | 29.1 µM [rising, single point] | –
Clc1cccc(-n2ncc3c(Nc4ccc5c(c4)OCCO5)ncnc32)c1 | 5.62 µM [falling, full curve, poor fit] | –
COC(=O)c1ccc(NC(=S)NC2CC3CCC2C3)cc1 (stereo not given) | 6.51 µM [rising, single point] | –
Cc1c(C(=O)Nc2c(F)cccc2F)sc2ncn(CC(=O)N3CCCCC3)c(=O)c12 | 7.94 µM [falling, partial curve, poor fit] | –
Cc1ccccc1C(=O)NCC(=O)NNC(=O)c1cccc(Cl)c1 | 6.51 µM [rising, single point] | –
O=C(CCCc1ccccc1)Nc1ccnn1C1CCN(Cc2ccccc2)CC1 | 2.82 µM [rising, partial curve, poor fit] | –
CC(=O)Nc1ccc2nc(NC(=O)c3ccc([N+](=O)[O-])o3)sc2c1 | 3.55 µM [falling, single point] | –
O=C1Nc2ccccc2/C1=N\c1sc2c(c1C(=O)Nc1ccccc1)CCCC2 | 5.17 µM [falling, full curve] | –
Cc1[nH]n(-c2ccc(F)cc2)c(=O)c1C=Nc1ccc(S(=O)(=O)N(C)C)cc1 | 7.31 µM [falling, partial curve, poor fit] | –
COCCNC(=O)C(c1ccc(C)cc1)N(C(=O)CCC(=O)Nc1ccccn1)C1CCCCC1 (stereo not given) | 35.5 µM [rising, single point] | –
Cc1cccc(CCNC(=O)CCCOc2cc(=O)n(C)c3ccccc23)c1 | 31.6 µM [rising, partial curve, poor fit] | –
COc1ccc(OC)c(NC(=O)c2c(NCc3ccc(N(C)C)cc3)sc3c2CCCC3)c1 | 7.08 µM [rising, full curve] | –
O=C(Nc1nc2c(Cl)cccc2s1)c1ccc(Br)o1 | 4.11 µM [falling, partial curve, poor fit] | –
COc1ccc(OCC(=O)NCCNC(=O)c2cccnc2)cc1 | 3.55 µM [falling, single point] | –

SMILES | AC50 [1] | AC50 [2]
Cc1ccc(S(=O)(=O)N2CCC(C(=O)OC(C)C(=O)NC(N)=O)CC2)cc1C (stereo not given) | 0.708 µM [falling, partial curve, poor fit] | –
C=CCOc1ccc(Br)cc1/C=N/O | 7.31 µM [rising, partial curve, poor fit] | –
Cc1ccc([N+](=O)[O-])cc1NC(=O)Cc1cccs1 | 35.5 µM [falling, single point] | –
CS(=O)(=O)Nc1ccccc1C(=O)Nc1cccc(Cl)c1 | 16.4 µM [falling, single point] | –
Cc1ccc(NC(=O)NC2CCN(S(=O)(=O)c3ccc(F)cc3)CC2)cc1 | 0.231 µM [falling, full curve, poor fit] | –
CCOC(=O)CS(=O)(=O)c1nc(-c2ccccc2)cc(C(F)(F)F)n1 | 6.31 µM [falling, partial curve] | 14.1 µM [rising, partial curve, poor fit]
COc1ccc([C@@H]2[C@@H]3C(=O)N(C(C)(C)C)C(=O)[C@@H]3[C@]3(Cc4ccc(Cl)cc4)C(=O)N(c4ccc(C)cc4)C(=O)N23)cc1 | 16.4 µM [falling, partial curve] | –
COc1ccc(CCn2c(-c3cccc([N+](=O)[O-])c3)nc3nc4ccccc4nc32)cc1OC | 1.84 µM [rising, full curve] | –
C/C(=N\NC(=O)c1ccc2c(c1)OCO2)c1ccc2c(c1)OCO2 | 6.31 µM [falling, partial curve, poor fit] | –
CCCCNc1c(-c2ccc(Sc3ccc(OC)cc3)cc2)nc2cc(C)ccn12 | 9.2 µM [falling, single point] | –
O=C(Nc1nnc(S(=O)(=O)N2CCCCCC2)s1)c1ccccc1 | 12.6 µM [rising, partial curve] | –
COc1ccc(C(=O)N2CCc3cc(OC)c(OC)cc3C2c2ccc(OC)c(OC)c2)cc1OC (stereo not given) | 0.316 µM [rising, full curve, poor fit] | –
CCn1ccnc1CN(C)Cc1cn(-c2cccc(C)c2)nc1-c1cccc(F)c1 | 20 µM [falling, partial curve, poor fit] | –
Cc1cccc(NS(=O)(=O)Cc2ccccc2)c1C | 12.6 µM [rising, single point] | –
COc1ccc(S(=O)(=O)N2CCOCC2)cc1C(=O)N1CCCCC1 | 0.251 µM [rising, full curve] | –
COc1ccc2c(CC(=O)Nc3nccs3)coc2c1 | 5.01 µM [falling, partial curve, poor fit] | 12.6 µM [rising, partial curve, poor fit]
O=C1NN(c2ccccc2)C(=O)/C1=C/c1coc2ccccc2c1=O | 13 µM [falling, partial curve] | –
Cc1ccc(-n2cc(CNCC3CC(=O)N(C4CC4)C3)c(-c3cccc(C)c3)n2)cc1 (stereo not given) | 35.5 µM [falling, single point] | –
Cc1ccc(C(=O)CNc2ccc(F)cc2)cc1 | 20.6 µM [falling, single point] | –
O=C(CN1CCCC1)OCCCc1ccccc1 | 25.9 µM [rising, single point] | –

Compounds above containing bromine, in the order listed:
SMILES | AC50 [1] | AC50 [2]
O=C(Nc1nc2c(Cl)cccc2s1)c1ccc(Br)o1 | 4.11 µM [falling, partial curve, poor fit] | –
C=CCOc1ccc(Br)cc1/C=N/O | 7.31 µM [rising, partial curve, poor fit] | –

Continuation:

SMILES | AC50 [1] | AC50 [2]
CCC(=O)Nc1ncc2c(n1)CC(c1ccco1)CC2=O (stereo not given) | 29.1 µM [falling, single point] | –
CCCCNC(=O)c1onc(CSc2cccc(F)c2)c1C(=O)O | 35.5 µM [falling, single point] | 35.5 µM [rising, partial curve, poor fit]
CN(C)CCCNC(=O)C[C@H]1C[C@H](C(=O)N2CCCCC2)[C@@]2(C)c3[nH]c4ccc(Cl)cc4c3CCN2C1=O | 29.1 µM [falling, single point] | –
O=C(C1CCN(S(=O)(=O)c2ccc(Cl)cc2)CC1)N1CCOCC1 | 32.6 µM [rising, single point] | –
Cc1csc(NC(=O)CCc2c(C)nc3cc(-c4cccc(F)c4)nn3c2C)n1 | 16.4 µM [falling, partial curve, poor fit] | –
C/C(=N\Nc1nc2ccccc2[nH]1)c1ccc(N2CCOCC2)cc1 | 10 µM [falling, partial curve] | –
Cc1cc(C)c(C)c(S(=O)(=O)N2C(=S)NC(=O)C2C(C)C)c1C (stereo not given) | 20 µM [rising, partial curve, poor fit] | –
COC(=O)c1ccccc1NC(=S)N(Cc1ccc2c(c1)OCO2)Cc1cc2cccc(C)c2[nH]c1=O | 29.1 µM [rising, single point] | –
O=C(Cn1cccc1C(=O)c1ccccc1)NCc1ccccc1 | 5.8 µM [rising, partial curve, poor fit] | –
COC(=O)c1nccc2c1[nH]c1ccccc12 | 29.1 µM [falling, single point] | –
Cc1ccc2nc(N=C(N)N)nc(C)c2c1 | 3.98 µM [falling, partial curve] | 1.26 µM [rising, full curve, poor fit]
O=C(/C=C/c1ccco1)NC(=S)Nc1cc(-c2nc3ccccc3s2)ccc1Cl | 0.651 µM [rising, full curve, poor fit] | –
CN(CC(=O)Nc1cccc(F)c1)C(=O)c1cc(-c2cccs2)nn1-c1ccccc1 | 29.1 µM [falling, single point] | –
CCCC(=O)Nc1ccc(NC(=O)c2ccccn2)cn1 | 10 µM [falling, partial curve, poor fit] | –
O=C(COC(=O)C1=COCCO1)Nc1ccccc1 | 22.4 µM [falling, single point] | –
COc1ccc2cc(CCNC(=O)CC(C)(C)C)c(=O)[nH]c2c1 | 8.2 µM [rising, partial curve, poor fit] | –
COCCn1c(-c2ccco2)nc2nc3ccccc3nc21 | 7.31 µM [falling, partial curve, poor fit] | –
Cc1nn(Cc2c(F)c(F)c(F)c(F)c2F)c(C)c1NC(=O)c1ccc(COc2ccc(Cl)cc2Cl)o1 | 29.1 µM [falling, single point] | –
CCOC(=O)C1=CC[C@H]2c3c(c4ccc(OC)cc4n3C)C(=O)C1N2S(=O)(=O)c1ccc(C)cc1 | 16.4 µM [falling, partial curve] | –
C/C(=N/NC(=O)c1ccoc1C)c1ccc(N2CCOCC2)cc1 | 4.61 µM [falling, partial curve, poor fit] | –
